# Assay results published in the supplement of paper PMC7666118.
# The chains behind the UniProt entries cited, without tags or fusion partners. Where a name states a change or a piece, a line headed by the entry shows the natural chain unless it says otherwise.
# UniProt O95155, whole entry: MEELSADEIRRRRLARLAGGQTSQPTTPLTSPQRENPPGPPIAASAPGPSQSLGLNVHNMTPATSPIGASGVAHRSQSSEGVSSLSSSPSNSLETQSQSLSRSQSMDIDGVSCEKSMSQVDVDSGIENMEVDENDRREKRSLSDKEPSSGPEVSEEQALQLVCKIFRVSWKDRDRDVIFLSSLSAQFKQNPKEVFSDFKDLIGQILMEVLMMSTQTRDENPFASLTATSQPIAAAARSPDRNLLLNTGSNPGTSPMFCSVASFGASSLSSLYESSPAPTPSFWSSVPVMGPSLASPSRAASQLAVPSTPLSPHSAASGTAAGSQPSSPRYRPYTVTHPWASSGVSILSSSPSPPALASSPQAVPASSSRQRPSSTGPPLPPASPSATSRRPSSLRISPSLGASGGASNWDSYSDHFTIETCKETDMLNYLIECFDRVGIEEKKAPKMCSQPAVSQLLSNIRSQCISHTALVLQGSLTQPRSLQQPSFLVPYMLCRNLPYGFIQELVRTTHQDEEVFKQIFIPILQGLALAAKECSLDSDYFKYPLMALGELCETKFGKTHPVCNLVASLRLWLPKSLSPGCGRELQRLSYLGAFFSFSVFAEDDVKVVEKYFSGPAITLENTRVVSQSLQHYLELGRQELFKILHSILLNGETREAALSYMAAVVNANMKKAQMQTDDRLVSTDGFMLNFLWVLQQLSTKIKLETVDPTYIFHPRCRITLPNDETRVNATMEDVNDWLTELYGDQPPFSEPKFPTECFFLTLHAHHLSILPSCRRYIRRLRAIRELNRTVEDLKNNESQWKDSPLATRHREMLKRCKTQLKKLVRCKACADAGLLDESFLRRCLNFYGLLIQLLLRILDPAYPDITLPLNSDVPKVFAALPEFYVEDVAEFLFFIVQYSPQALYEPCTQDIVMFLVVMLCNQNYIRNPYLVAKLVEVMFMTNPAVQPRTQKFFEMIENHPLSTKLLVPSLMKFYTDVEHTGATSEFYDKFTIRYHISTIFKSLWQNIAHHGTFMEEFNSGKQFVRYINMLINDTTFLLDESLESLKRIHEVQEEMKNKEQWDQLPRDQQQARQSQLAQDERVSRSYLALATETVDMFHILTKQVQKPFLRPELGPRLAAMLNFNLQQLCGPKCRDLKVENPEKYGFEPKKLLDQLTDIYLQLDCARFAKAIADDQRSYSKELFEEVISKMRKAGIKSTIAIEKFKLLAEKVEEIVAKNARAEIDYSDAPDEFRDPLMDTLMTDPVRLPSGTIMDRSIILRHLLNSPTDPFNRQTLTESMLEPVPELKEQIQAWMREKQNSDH
# UniProt Q6BDS2: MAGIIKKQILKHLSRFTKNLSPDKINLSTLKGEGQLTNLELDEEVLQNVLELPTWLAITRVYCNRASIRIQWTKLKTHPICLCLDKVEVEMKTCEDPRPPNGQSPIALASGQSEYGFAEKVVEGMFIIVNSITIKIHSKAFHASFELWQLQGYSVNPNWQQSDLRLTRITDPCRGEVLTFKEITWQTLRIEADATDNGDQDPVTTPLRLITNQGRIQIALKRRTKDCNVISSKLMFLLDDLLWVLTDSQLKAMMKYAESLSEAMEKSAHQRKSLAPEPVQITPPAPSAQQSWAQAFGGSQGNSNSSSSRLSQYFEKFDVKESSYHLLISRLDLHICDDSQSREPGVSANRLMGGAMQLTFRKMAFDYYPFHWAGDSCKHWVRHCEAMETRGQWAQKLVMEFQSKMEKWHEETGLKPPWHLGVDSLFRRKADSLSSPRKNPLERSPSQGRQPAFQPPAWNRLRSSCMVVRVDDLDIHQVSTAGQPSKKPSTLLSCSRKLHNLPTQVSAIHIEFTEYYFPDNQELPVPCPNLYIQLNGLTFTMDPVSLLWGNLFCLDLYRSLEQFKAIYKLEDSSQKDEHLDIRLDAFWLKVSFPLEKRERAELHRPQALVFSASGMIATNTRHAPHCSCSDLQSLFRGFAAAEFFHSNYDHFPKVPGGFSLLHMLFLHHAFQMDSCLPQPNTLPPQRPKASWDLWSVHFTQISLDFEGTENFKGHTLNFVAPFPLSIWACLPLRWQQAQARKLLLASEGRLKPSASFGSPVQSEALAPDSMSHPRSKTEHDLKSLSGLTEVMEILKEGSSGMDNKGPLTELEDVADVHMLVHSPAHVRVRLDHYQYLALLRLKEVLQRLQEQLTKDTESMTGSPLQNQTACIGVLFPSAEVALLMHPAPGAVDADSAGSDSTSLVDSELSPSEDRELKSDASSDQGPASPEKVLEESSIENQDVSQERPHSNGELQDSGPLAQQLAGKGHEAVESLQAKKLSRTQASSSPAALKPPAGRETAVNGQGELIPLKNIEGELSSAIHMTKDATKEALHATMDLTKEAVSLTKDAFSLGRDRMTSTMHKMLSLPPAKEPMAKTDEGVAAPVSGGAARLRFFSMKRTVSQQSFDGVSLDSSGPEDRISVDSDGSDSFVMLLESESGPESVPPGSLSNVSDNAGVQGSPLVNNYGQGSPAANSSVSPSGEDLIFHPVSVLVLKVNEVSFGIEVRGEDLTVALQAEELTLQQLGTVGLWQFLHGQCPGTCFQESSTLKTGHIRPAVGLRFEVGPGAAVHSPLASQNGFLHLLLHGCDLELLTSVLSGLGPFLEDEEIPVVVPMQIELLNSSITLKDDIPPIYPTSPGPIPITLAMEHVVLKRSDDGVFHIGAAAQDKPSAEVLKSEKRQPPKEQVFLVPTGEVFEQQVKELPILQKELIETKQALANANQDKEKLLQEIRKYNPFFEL
# UniProt P31946: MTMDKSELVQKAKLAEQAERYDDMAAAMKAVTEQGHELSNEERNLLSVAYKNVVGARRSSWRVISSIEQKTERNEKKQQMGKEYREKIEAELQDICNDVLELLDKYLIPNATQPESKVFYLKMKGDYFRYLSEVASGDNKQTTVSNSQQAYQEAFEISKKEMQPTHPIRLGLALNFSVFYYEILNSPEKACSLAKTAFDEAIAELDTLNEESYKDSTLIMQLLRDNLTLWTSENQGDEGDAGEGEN
# UniProt Q9Y385: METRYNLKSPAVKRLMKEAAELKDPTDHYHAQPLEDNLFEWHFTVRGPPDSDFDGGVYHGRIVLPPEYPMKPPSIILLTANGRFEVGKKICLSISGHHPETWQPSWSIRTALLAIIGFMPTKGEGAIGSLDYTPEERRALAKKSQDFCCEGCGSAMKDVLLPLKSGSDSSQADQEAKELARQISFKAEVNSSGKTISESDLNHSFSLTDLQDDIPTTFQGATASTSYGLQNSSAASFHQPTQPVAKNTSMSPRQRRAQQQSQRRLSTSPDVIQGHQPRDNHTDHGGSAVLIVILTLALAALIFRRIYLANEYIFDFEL
# UniProt P63146, whole entry: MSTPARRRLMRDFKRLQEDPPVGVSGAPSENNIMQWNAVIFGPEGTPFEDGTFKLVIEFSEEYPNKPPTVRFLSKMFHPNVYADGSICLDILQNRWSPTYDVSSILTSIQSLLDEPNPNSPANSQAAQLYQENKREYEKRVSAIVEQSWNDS
# UniProt P18206: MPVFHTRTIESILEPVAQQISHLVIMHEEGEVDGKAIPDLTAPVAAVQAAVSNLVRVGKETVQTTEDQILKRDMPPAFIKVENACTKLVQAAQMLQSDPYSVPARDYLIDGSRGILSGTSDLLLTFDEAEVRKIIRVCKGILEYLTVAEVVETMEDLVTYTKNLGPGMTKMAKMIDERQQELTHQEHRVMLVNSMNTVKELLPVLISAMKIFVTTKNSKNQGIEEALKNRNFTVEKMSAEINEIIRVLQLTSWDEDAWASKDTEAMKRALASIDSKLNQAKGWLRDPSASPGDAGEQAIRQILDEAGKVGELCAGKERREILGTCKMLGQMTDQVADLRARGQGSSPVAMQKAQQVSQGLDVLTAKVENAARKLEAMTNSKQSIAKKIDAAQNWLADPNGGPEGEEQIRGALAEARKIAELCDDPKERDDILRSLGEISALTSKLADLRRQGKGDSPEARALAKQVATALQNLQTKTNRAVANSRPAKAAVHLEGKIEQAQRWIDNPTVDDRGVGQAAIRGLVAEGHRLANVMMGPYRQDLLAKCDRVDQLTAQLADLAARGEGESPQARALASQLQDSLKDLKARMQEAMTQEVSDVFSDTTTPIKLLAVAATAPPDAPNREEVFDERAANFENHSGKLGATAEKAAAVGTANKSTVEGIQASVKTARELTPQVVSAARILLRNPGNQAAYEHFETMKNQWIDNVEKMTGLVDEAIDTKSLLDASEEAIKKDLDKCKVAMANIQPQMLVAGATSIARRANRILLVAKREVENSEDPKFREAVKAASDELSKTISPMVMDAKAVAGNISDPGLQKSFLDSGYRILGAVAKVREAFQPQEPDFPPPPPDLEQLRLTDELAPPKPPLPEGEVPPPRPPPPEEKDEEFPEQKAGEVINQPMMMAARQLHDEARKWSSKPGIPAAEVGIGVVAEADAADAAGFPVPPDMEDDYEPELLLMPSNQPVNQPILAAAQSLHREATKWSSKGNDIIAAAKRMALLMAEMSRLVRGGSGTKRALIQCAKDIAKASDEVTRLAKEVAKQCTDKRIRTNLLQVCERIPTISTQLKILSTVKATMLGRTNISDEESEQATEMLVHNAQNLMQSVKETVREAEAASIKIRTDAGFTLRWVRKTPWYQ
# UniProt Q15906, whole entry: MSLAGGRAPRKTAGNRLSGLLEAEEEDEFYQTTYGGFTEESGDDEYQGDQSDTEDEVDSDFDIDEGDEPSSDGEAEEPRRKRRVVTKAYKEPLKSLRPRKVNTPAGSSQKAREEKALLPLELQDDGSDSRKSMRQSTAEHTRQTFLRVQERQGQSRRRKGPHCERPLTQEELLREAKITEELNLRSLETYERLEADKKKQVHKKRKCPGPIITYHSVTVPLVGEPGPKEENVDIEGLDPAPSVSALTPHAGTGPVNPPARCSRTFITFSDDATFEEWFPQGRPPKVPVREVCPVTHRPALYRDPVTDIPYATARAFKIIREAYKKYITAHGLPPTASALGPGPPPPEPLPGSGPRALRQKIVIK
# UniProt Q05086: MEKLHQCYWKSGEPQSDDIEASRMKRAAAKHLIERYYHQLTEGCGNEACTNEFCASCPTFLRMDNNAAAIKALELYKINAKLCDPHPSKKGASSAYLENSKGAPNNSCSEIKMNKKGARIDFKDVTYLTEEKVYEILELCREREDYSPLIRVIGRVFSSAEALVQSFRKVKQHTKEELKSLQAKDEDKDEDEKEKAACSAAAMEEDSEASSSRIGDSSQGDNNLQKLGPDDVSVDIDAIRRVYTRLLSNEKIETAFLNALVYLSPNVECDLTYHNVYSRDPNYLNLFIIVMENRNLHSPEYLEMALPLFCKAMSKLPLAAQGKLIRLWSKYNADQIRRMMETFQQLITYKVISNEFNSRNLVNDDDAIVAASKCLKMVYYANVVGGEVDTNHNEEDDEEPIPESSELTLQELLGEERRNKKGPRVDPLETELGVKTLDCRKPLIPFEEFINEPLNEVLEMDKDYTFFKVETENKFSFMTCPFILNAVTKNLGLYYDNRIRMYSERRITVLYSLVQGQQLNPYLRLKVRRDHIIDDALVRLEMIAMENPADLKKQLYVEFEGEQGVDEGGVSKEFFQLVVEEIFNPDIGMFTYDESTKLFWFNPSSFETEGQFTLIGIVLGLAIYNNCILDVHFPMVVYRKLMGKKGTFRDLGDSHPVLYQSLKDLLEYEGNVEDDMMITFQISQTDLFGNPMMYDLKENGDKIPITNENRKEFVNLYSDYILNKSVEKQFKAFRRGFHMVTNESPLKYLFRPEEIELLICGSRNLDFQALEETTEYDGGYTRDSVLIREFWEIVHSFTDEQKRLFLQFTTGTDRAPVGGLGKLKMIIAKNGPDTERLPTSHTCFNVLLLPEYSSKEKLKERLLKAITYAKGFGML
# UniProt Q96EX3: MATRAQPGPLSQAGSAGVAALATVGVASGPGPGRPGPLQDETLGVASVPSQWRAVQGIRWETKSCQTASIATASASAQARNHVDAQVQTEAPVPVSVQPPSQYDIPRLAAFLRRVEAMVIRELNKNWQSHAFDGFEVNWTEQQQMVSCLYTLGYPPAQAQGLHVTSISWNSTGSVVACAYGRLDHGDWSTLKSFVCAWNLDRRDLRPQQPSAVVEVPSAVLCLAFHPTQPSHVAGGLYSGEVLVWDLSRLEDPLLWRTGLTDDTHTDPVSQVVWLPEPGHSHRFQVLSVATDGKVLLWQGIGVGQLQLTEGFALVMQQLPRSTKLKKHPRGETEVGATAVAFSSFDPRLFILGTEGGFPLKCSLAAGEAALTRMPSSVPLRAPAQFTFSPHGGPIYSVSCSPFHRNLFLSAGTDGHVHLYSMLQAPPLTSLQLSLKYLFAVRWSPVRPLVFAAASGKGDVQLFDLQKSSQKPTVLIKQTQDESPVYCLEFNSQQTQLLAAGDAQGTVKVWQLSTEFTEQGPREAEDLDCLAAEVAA
# UniProt Q9NPD8: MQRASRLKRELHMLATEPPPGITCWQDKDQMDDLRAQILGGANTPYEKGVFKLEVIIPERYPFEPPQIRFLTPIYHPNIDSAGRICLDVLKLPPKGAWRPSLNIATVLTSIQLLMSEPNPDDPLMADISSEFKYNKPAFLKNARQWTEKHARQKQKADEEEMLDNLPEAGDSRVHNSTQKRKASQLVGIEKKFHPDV
# The list shows a part of the results.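 How the source made its calls: active = dose-dependent thermal stabilisation significant by F-test of dose-response against flat model at 10% FDR; inactive = not significant.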
# Compound: Nc1nc2c(ncn2[C@@H]2O[C@H](COP(=O)(O)OP(=O)(O)OP(=O)(O)O)[C@@H](O)[C@H]2O)c(=O)[nH]1
# Assay: dose-dependent thermal stabilisation call (2D-TPP, DLPTP, 10% FDR) (binary (1 = stabilised)); higher = stabilised by the compound
# Conditions: system: Jurkat gel-filtered lysate; concentration range 1-500 µM
# Description: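 2D thermal proteome profiling in gel-filtered Jurkat E6.1 lysate (2 mg/ml) treated with NaGTP (0, 1, 10, 100, 500 uM) for 10 min at room temperature, then heated 3 min at one of 12 temperatures (42-63.9 C). Soluble protein was quantified by TMT10 MS. The value is the DLPTP call of the paper: dose-dependent thermal stabilisation over all temperatures at 10% FDR (F-test of a dose-response against a flat model); one experiment, one call per tested protein.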
row,Target,dose-dependent thermal stabilisation call
1,UBE4B (UniProt O95155),inactive: 0
2,UHRF1BP1 (UniProt Q6BDS2),inactive: 0
3,YWHAB (UniProt P31946),inactive: 0
4,ZBTB33 (UniProt Q86T24),inactive: 0
5,WAS (UniProt P42768),inactive: 0
6,VAV3 (UniProt Q9UKW4),active: 1
7,UBE2Q1 (UniProt Q7Z7E8),inactive: 0
8,ZEB1 (UniProt P37275),inactive: 0
9,UBE2J1 (UniProt Q9Y385),inactive: 0
10,ZC3H8 (UniProt Q8N5P1),inactive: 0
11,UBE2L3 (UniProt P68036),inactive: 0
12,YOD1 (UniProt Q5VVQ6),inactive: 0
13,WDR4 (UniProt P57081),inactive: 0
14,UFL1 (UniProt O94874),inactive: 0
15,WBP11 (UniProt Q9Y2W2),inactive: 0
16,XIAP (UniProt P98170),inactive: 0
17,UBE2B (UniProt P63146),inactive: 0
18,ZC3H14 (UniProt Q6PJT7),inactive: 0
19,ZC3H7A (UniProt Q8IWR0),inactive: 0
20,ZFAND1 (UniProt Q8TCF1),inactive: 0

row,Target,dose-dependent thermal stabilisation call
1,VCL (UniProt P18206),inactive: 0
2,ZBTB43 (UniProt O43298),inactive: 0
3,UCK2 (UniProt Q9BZX2),active: 1
4,USP34 (UniProt Q70CQ2),inactive: 0
5,VWA5A (UniProt O00534),inactive: 0
6,VPS72 (UniProt Q15906),inactive: 0
7,VPS33A (UniProt Q96AX1),inactive: 0
8,UBE3A (UniProt Q05086),inactive: 0
9,WIZ (UniProt O95785),inactive: 0
10,XPO7 (UniProt Q9UIA9),inactive: 0
11,WDR13 (UniProt Q9H1Z4),inactive: 0
12,VPS11 (UniProt Q9H270),inactive: 0
13,YBX3 (UniProt P16989),inactive: 0
14,WDR34 (UniProt Q96EX3),active: 1
15,UBE2T (UniProt Q9NPD8),inactive: 0
16,UBQLN2 (UniProt Q9UHD9),inactive: 0
17,XPNPEP3 (UniProt Q9NQH7),inactive: 0
18,ZC3H4 (UniProt Q9UPT8),inactive: 0
19,WBP2 (UniProt Q969T9),inactive: 0
20,WTAP (UniProt Q15007),inactive: 0

# In another format: entries from further up.
row | Target | dose-dependent thermal stabilisation call
16 | UBQLN2 (UniProt Q9UHD9) | inactive: 0
17 | XPNPEP3 (UniProt Q9NQH7) | inactive: 0
18 | ZC3H4 (UniProt Q9UPT8) | inactive: 0
